From publication PMC7819943, “Rice protein-binding microarrays: a tool to detect cis-acting elements near promoter regions in rice”
The other results are listed elsewhere or left out.

The chains behind the UniProt entries cited, without tags or fusion partners.
UniProt Q0JBA9, entry or part of it: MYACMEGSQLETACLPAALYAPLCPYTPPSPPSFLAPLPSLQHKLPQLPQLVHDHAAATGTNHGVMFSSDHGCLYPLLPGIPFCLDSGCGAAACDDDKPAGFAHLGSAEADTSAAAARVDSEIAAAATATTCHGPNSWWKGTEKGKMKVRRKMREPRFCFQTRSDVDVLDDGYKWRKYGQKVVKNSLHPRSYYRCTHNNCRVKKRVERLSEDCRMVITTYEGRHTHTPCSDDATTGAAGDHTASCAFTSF

biological target: OsWRKY34 (Oryza sativa, UniProt Q0JBA9 1-250); assay: protein-binding microarray (RPBM); PBS, 2% BSA, 51.3 ng/ul salmon testes DNA, 50 uM zinc acetate, 200 nM TF, 25 C, 1 h; high values mean tight binding; conditions: protein: recombinant; tags: N-terminal polyhistidine and DsRed monomer fusion (pET32a); label: CyDye5-dUTP incorporated in the synthesized complementary strand; 3' TTTTT single-stranded linker to array surface; dsDNA, one strand shown
Procedure, shortened: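 Binding signal is defined as the fluorescence intensity of each feature in arbitrary units, read on an Axon 4000B scanner. Transcription factors with N-terminal polyhistidine and DsRed fusions came from E. coli BL21-CodonPlus and were purified on Ni–NTA. They were incubated at 200 nM for 1 h at 25 °C on a custom Agilent array that had been made double-stranded with Cy5-dUTP, with 50 µM zinc acetate present, and the array was washed.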

Row | Sequence | binding signal
1 | AATTTGTTCTTACTTTTGACTTTAGGATCAGGAACCATTTCGGAGTCACCTAGTGCAG | 8530 fluorescence intensity (a.u.)
2 | TGACAACGGGGAGGGGAGGATGGGGCGGCGACGACAGGGGCGGAGTCACCTAGTGCAG | 15500 fluorescence intensity (a.u.)
3 | AACAGCATCTTTGGAGTACAAACACATCTATTGTCTCGTACGGAGTCACCTAGTGCAG | 8880 fluorescence intensity (a.u.)
4 | ACCCCGCCCACCGCCGCACCGCCATCCCCAACACTCGTTGCGGAGTCACCTAGTGCAG | 8330 fluorescence intensity (a.u.)
5 | GTGTGTTTTGATGCTCATCAAGTTGATTGTAGTCATGTAACGGAGTCACCTAGTGCAG | 8460 fluorescence intensity (a.u.)
6 | GGACGCTTACGCCGTGCCCGCTCTCGTGTCACTGCCTCATCGGAGTCACCTAGTGCAG | 8270 fluorescence intensity (a.u.)
7 | AGGACGATGGGCGCGATGGGATTTGTTCTTGACTGTTTTACGGAGTCACCTAGTGCAG | 12000 fluorescence intensity (a.u.)
8 | AACTTGCGTTGACCACCCACGGGAACCATTCGTCAGATCCCGGAGTCACCTAGTGCAG | 12400 fluorescence intensity (a.u.)
9 | CTACTAGTCTTCGTCGTCCTCGTCCTCGGGCTTTCCTAGTCGGAGTCACCTAGTGCAG | 11600 fluorescence intensity (a.u.)
10 | TGTATCTCTCTTGGTTGTAGCCCGTTGCAAATCATGGGCTCGGAGTCACCTAGTGCAG | 8780 fluorescence intensity (a.u.)
11 | TCACAATTTTTCTTTCCTTTTGCGCTTTTTTCTGATTATTCGGAGTCACCTAGTGCAG | 16000 fluorescence intensity (a.u.)
12 | CCGTTATTAGCAAATATTTACTGTAGCACCATATTATCAACGGAGTCACCTAGTGCAG | 8050 fluorescence intensity (a.u.)
13 | TACTGTTGCTTCGAATATTGCTTGTTTATTATTCCAAATTCGGAGTCACCTAGTGCAG | 9240 fluorescence intensity (a.u.)
14 | TCATTTTCTAATGTTGTGTTGTTTTCTGGGAAATGTAGGACGGAGTCACCTAGTGCAG | 8890 fluorescence intensity (a.u.)
15 | GGATTATTGCTTGGTCTTCTTGTTCATGGGCTTATAAATACGGAGTCACCTAGTGCAG | 8960 fluorescence intensity (a.u.)
16 | CGGATTCTTCTTTACGTCACGTATTGCATGCCCCTCTTATCGGAGTCACCTAGTGCAG | 9260 fluorescence intensity (a.u.)
17 | CACGTTGCTCATTCTAATCAATATCCTGCCCAAACAGTTTCGGAGTCACCTAGTGCAG | 10500 fluorescence intensity (a.u.)
18 | GGCGGCGGGTTGAGGAGGTGTGCTAGCTAGCGGCGGCGGCCGGAGTCACCTAGTGCAG | 8730 fluorescence intensity (a.u.)
19 | CAATAGGTGGGCTTGTTGTTAATGTCATTGGACTGGTTTTCGGAGTCACCTAGTGCAG | 10500 fluorescence intensity (a.u.)
20 | GCCGGCCCATCGTGTCCGCTATCTTCTAACAGGCCGGCCTCGGAGTCACCTAGTGCAG | 9360 fluorescence intensity (a.u.)
21 | GCAGCAGACAACGTGGGTGTGGTGCGCGGGAGGGTGGGCCCGGAGTCACCTAGTGCAG | 8510 fluorescence intensity (a.u.)
22 | TTCATCCCGACATATCATAGCCGCTGGAAATAAATGGCCTCGGAGTCACCTAGTGCAG | 8980 fluorescence intensity (a.u.)
23 | TTTCTCTACCTGTGCCGCGCCCACGGTTCTAGTACCACTACGGAGTCACCTAGTGCAG | 9940 fluorescence intensity (a.u.)
24 | TTTACCTTGGTTATCTTCTCCTATTTCAATACTCGTGTGTCGGAGTCACCTAGTGCAG | 8650 fluorescence intensity (a.u.)
25 | CCATGCCGAATTTTCCGTACTTCTTTTCCATGCGAGTTTTCGGAGTCACCTAGTGCAG | 9700 fluorescence intensity (a.u.)
26 | GTTTTACGTTAGCACTCTTTCATCCTTACTATCAAGGTGACGGAGTCACCTAGTGCAG | 9950 fluorescence intensity (a.u.)
27 | CCCTAGCGCGGCGCCATCATCATCCCAATCGTCCGCTACACGGAGTCACCTAGTGCAG | 8250 fluorescence intensity (a.u.)

A different layout for some results above:

| Row | Sequence | binding signal |
| --- | --- | --- |
| 5 | GTGTGTTTTGATGCTCATCAAGTTGATTGTAGTCATGTAACGGAGTCACCTAGTGCAG | 8460 fluorescence intensity (a.u.) |
| 6 | GGACGCTTACGCCGTGCCCGCTCTCGTGTCACTGCCTCATCGGAGTCACCTAGTGCAG | 8270 fluorescence intensity (a.u.) |
| 7 | AGGACGATGGGCGCGATGGGATTTGTTCTTGACTGTTTTACGGAGTCACCTAGTGCAG | 12000 fluorescence intensity (a.u.) |
| 8 | AACTTGCGTTGACCACCCACGGGAACCATTCGTCAGATCCCGGAGTCACCTAGTGCAG | 12400 fluorescence intensity (a.u.) |
| 9 | CTACTAGTCTTCGTCGTCCTCGTCCTCGGGCTTTCCTAGTCGGAGTCACCTAGTGCAG | 11600 fluorescence intensity (a.u.) |

Next records follow:

Row | Sequence | binding signal
28 | TGGCAAACTTTGACTTTGTTCTTGGTCCATGATTTTGATCCGGAGTCACCTAGTGCAG | 9570 fluorescence intensity (a.u.)
29 | TATTTCTATATGGACTTAGTCTCCTCTTCTAATATTCCTTCGGAGTCACCTAGTGCAG | 8120 fluorescence intensity (a.u.)
30 | AGGGAGGGGAAGGGGAAGCTCGTGGGAGTCGTAGTGATTCCGGAGTCACCTAGTGCAG | 8120 fluorescence intensity (a.u.)
31 | GGGCTGCTGGATTTTGCGTCCTCTCGTGCGGCCGCGTCGTCGGAGTCACCTAGTGCAG | 8300 fluorescence intensity (a.u.)
32 | TTCCAAGCTTTTCTTCCCTCTCATGGAAGAATTTTCCGTTCGGAGTCACCTAGTGCAG | 8080 fluorescence intensity (a.u.)
33 | GAAAGTTTATGTTGTTATGCTTCAACTGTTATTCATTATTCGGAGTCACCTAGTGCAG | 8900 fluorescence intensity (a.u.)
34 | TAATTGTACATATTGCGATTAATTTGCGAGACAAATTTTTCGGAGTCACCTAGTGCAG | 8320 fluorescence intensity (a.u.)
35 | TCTTTCGAGACGGTTTGTTTGCAGCATGTGCTCACTTTCACGGAGTCACCTAGTGCAG | 9500 fluorescence intensity (a.u.)
36 | CACGCGATGAAATCATCTGCGCATCCTGTACTTTCAATTTCGGAGTCACCTAGTGCAG | 8030 fluorescence intensity (a.u.)
37 | CCGCCGCCGCTCTTGCCCGCCATCGCCCCGCCGGTCTCGGCGGAGTCACCTAGTGCAG | 11900 fluorescence intensity (a.u.)
38 | GATTACGATCTTGCTCTGTTGCATGCTGTCTTGATTAAACCGGAGTCACCTAGTGCAG | 12600 fluorescence intensity (a.u.)
39 | CTTCCTATTTTCCACTCACTTGGTTTTTTTATGCTTCTCGCGGAGTCACCTAGTGCAG | 8090 fluorescence intensity (a.u.)
40 | CGGCCTTCCACTGCCCGCCGCCGCCGCTCCAGCCCACCACCGGAGTCACCTAGTGCAG | 9360 fluorescence intensity (a.u.)
41 | TGTGCGCGTGTTGTTTTTTTGGCTTCTTTTTCGCTTGCCACGGAGTCACCTAGTGCAG | 11400 fluorescence intensity (a.u.)
42 | CGCTTTCCTCACAATTCATCGCACTCTCGCTCGTTGATGTCGGAGTCACCTAGTGCAG | 13500 fluorescence intensity (a.u.)
43 | TTGTACGACCAGGGCCCATCACCATCTCTCGCTGCATTTACGGAGTCACCTAGTGCAG | 8830 fluorescence intensity (a.u.)
44 | ACCACTATCCGTTCGAATTCGCTCCGTTTTCACCCTTCGCCGGAGTCACCTAGTGCAG | 8380 fluorescence intensity (a.u.)
45 | ACGACGACCGCATCTCTCTCGCCTTGCCGTGAAGCTTCGACGGAGTCACCTAGTGCAG | 8900 fluorescence intensity (a.u.)
46 | TCCTAATGACTCCACATTTTCCTGTCAATTTCCACACTAACGGAGTCACCTAGTGCAG | 12000 fluorescence intensity (a.u.)
47 | CCGAGCCGCATCCTCACCGCCTCCGACGCCGCCCGCGAGGCGGAGTCACCTAGTGCAG | 10500 fluorescence intensity (a.u.)
48 | CCCAAACTACAAACCAACTGAATTTTGCTTTCAACATAACCGGAGTCACCTAGTGCAG | 8320 fluorescence intensity (a.u.)
49 | GATCTCCTCTAGCTTTCTCGCTCGCCTCTCCTCTCCTGTTCGGAGTCACCTAGTGCAG | 8790 fluorescence intensity (a.u.)
50 | TTCATAGGTTTGGACCCTCACGAGCCCTCGGTCCTACACGCGGAGTCACCTAGTGCAG | 8590 fluorescence intensity (a.u.)
51 | AGAGAGAGAGACTCATATCGCCGCCACATCTCTCACATCTCGGAGTCACCTAGTGCAG | 8870 fluorescence intensity (a.u.)
52 | GGCGCTGGTATTGATGCGTCATTTTCATCTATTTGCATTTCGGAGTCACCTAGTGCAG | 9680 fluorescence intensity (a.u.)
53 | AGTAACTACCTGACTATCTAACTTTCTTTTTTCTTCAGGACGGAGTCACCTAGTGCAG | 8760 fluorescence intensity (a.u.)
54 | ATGTTTTATGCACTTGTTTCACTGTCACATCCATTGTATGCGGAGTCACCTAGTGCAG | 8750 fluorescence intensity (a.u.)
